Results reported in the supplement of paper PMC10849652.
This is one part of the list.

Protein sequences, listed by entry. Tags and fused reporters are not part of them. Lines headed by an entry give the natural chain unless they say otherwise; changes in a name come on top.
UniProt Q96IK1: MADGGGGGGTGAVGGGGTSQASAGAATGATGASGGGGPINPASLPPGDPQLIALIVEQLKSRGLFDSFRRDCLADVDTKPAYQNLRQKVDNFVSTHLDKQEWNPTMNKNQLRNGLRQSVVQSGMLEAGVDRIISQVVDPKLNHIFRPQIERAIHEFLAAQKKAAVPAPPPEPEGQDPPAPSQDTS
UniProt P54252: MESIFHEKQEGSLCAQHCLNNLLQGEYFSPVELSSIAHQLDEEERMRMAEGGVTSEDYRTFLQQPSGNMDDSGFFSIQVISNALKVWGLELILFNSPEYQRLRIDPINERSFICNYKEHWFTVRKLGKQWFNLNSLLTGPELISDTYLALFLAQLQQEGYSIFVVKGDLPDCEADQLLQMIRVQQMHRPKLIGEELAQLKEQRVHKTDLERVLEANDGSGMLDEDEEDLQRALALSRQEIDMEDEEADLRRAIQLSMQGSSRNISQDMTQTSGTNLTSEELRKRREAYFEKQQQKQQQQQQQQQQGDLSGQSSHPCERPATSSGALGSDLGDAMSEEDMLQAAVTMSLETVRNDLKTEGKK
UniProt P46100: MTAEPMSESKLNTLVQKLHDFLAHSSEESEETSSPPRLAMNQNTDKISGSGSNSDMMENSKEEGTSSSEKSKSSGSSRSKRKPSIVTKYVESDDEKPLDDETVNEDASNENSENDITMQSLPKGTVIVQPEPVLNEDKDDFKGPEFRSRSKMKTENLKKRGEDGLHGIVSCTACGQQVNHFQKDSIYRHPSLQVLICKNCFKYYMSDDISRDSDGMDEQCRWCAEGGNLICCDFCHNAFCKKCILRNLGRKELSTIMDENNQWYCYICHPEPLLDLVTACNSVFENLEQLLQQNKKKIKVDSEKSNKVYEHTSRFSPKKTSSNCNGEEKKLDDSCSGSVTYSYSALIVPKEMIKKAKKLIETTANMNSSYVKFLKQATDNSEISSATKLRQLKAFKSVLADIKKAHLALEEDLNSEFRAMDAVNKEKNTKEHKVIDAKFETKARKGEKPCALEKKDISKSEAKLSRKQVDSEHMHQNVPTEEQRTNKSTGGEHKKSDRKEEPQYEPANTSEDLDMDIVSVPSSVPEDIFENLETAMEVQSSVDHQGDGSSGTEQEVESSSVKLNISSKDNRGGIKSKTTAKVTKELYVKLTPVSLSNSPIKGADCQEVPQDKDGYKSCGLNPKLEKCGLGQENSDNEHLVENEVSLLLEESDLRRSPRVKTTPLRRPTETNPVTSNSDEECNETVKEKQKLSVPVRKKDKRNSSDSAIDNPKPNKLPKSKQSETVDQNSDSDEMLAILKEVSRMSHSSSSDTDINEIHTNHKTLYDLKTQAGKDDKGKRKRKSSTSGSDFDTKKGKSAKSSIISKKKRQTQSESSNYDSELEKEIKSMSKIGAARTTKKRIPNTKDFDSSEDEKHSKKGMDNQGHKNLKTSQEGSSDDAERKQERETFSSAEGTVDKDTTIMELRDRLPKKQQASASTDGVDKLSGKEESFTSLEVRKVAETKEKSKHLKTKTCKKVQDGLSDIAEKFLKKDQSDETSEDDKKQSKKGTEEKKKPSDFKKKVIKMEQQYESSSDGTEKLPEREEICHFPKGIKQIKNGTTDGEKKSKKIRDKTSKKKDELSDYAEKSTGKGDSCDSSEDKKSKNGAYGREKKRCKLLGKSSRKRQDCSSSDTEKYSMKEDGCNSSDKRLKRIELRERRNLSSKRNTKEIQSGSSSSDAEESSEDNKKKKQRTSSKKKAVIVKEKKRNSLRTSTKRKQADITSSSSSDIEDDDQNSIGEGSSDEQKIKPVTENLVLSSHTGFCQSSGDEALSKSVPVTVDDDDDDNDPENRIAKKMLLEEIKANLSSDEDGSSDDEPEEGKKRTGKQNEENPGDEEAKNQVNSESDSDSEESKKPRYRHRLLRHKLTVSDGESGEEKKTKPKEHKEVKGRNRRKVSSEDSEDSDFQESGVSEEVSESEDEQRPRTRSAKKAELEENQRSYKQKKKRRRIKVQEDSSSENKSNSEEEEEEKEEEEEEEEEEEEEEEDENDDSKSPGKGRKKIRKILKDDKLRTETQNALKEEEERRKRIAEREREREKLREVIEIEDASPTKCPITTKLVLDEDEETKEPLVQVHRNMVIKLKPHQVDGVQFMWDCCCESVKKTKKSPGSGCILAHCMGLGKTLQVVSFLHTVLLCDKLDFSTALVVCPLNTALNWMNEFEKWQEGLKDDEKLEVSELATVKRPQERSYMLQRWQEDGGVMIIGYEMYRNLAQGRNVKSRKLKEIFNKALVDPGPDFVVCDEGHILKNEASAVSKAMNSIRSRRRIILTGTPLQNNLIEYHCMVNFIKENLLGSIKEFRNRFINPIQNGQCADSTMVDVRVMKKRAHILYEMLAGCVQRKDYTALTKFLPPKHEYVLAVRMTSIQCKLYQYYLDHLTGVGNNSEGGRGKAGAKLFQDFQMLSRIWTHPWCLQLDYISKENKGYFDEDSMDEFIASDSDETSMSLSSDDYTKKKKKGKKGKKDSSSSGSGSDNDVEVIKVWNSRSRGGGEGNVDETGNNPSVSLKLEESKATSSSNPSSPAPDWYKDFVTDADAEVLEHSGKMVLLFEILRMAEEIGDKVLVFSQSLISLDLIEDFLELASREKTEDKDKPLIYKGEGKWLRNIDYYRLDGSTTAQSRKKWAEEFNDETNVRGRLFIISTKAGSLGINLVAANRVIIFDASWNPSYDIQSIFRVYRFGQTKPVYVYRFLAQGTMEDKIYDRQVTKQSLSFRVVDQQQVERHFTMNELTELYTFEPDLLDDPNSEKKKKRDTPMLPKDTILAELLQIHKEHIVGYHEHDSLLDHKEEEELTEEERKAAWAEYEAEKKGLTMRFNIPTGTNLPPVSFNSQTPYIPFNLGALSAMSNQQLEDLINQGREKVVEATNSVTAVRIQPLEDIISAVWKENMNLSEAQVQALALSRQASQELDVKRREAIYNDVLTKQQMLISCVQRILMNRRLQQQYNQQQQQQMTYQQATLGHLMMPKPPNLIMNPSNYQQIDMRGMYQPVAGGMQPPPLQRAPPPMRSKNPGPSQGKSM
UniProt H3BUF6: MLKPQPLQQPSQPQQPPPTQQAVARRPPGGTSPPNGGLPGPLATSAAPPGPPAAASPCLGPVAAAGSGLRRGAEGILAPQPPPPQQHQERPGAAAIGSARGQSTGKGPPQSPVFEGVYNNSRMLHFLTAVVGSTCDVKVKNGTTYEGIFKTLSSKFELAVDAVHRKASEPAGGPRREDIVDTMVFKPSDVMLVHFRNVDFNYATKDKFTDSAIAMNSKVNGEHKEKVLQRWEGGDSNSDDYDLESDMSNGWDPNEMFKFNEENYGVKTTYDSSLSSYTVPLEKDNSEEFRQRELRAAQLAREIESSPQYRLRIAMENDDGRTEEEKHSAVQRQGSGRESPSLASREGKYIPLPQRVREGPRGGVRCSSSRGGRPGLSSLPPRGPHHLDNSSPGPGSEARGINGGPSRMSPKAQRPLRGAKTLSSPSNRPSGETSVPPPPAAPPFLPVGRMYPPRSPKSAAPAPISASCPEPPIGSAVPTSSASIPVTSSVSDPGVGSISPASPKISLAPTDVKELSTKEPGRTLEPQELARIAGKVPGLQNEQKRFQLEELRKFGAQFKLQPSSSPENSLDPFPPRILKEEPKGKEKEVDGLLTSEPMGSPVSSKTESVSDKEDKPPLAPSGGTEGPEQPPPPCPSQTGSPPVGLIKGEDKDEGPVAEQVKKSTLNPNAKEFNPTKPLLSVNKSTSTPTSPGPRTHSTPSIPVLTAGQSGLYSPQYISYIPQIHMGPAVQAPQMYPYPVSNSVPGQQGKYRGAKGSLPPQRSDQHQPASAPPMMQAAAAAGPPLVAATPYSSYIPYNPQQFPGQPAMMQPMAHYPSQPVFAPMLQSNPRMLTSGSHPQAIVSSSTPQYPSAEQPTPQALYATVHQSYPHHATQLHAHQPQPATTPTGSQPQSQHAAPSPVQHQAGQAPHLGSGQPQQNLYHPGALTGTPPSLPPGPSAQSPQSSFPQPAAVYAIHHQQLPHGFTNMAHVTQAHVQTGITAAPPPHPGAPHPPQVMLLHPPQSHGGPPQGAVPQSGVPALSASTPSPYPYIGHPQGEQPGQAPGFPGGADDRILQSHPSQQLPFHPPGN
UniProt Q96GD4, whole entry, looked up: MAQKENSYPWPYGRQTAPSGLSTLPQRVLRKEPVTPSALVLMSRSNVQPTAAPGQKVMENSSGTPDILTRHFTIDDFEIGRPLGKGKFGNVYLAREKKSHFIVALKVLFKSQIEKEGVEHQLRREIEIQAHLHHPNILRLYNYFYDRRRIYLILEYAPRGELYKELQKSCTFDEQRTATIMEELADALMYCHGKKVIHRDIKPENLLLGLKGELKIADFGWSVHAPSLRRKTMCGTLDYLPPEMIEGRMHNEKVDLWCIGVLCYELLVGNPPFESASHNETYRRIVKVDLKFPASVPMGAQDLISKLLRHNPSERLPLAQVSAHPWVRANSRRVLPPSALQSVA
UniProt Q8TBE0: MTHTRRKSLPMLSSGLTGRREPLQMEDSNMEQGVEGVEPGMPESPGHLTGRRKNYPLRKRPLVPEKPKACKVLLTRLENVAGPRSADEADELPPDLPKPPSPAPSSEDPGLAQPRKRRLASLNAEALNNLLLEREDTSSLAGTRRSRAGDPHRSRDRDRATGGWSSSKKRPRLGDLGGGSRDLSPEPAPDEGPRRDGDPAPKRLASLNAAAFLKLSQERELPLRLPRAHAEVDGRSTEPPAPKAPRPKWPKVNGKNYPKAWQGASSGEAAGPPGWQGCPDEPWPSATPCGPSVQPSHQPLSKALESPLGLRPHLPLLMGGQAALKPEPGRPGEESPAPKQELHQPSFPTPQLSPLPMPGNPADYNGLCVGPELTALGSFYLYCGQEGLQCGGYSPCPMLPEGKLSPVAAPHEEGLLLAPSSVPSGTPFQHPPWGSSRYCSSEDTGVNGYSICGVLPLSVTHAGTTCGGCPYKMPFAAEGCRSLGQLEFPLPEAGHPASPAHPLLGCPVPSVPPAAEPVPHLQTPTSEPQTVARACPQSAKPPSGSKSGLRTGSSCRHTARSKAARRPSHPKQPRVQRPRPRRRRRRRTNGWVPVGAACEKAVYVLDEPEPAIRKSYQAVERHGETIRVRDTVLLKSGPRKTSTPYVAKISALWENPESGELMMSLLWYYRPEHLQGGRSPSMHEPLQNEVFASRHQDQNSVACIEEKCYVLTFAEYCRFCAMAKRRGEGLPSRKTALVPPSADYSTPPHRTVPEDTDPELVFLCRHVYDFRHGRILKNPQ
UniProt Q96FH0: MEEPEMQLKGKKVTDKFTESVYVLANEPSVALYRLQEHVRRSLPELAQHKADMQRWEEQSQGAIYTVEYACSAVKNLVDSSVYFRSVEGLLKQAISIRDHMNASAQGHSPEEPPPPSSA
UniProt Q9NQS1: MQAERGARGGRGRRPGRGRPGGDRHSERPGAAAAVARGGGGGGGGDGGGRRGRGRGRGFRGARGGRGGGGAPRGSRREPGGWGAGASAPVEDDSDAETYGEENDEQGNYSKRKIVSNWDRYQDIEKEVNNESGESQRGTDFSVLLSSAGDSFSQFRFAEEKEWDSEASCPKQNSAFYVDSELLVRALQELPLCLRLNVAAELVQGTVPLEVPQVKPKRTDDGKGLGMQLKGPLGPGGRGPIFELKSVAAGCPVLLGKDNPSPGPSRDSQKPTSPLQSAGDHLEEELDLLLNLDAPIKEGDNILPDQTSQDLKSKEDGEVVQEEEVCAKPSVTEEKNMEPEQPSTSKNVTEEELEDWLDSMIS
UniProt Q96G97: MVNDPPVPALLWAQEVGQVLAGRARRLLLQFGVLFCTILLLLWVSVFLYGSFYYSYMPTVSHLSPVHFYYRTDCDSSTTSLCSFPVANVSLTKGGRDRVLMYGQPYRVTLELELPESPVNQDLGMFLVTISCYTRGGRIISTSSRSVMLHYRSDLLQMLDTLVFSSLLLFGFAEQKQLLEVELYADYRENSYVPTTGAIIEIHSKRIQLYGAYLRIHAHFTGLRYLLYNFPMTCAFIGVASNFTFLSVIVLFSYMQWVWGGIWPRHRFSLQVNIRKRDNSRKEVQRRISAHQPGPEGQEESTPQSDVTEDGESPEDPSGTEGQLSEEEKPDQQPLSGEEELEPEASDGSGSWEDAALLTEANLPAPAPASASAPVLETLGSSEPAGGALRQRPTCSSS
UniProt O60238, whole entry, looked up: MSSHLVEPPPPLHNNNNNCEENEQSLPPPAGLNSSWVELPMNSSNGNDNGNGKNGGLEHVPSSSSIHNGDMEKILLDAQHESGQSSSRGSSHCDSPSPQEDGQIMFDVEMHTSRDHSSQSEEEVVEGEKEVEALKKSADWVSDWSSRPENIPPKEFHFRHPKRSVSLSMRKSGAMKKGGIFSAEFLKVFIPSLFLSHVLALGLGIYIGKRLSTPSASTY

Experiments:
Test in all cases: log2 fold change, soluble protein after heating vs DMSO (PISA); higher = thermal stabilisation; K562 cells, 10 uM, 30 min; active = over 0.2 and 3.5 SD of the protein, either way, in both replicates (recomputed)
[1] = compound: CCCc1cc(C)[nH]c(=O)c1CNC(=O)c1cc(-c2ccnc(N3CCN(C)CC3)c2)cc2c1cnn2C(C)C
Summary of the method: (§1)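 K562 cells at 2×10^6 cells/mL were treated with 10 μM compound for 30 min. Aliquots were heated for 3 min across 48°C-58°C, pooled, and extracted in PBS with 0.5% NP-40 at 4°C; soluble protein was the supernatant after 21,000xg for 90 min. Soluble protein was quantified by TMTpro 16plex LC-MS/MS with channel sums equalised, and reported as log2 fold change in thermal stability against DMSO controls, with values from duplicates.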

givinostat = compound: CCN(CC)Cc1ccc2cc(COC(=O)Nc3ccc(C(=O)NO)cc3)ccc2c1 [givinostat]
Summary of the method: as §1

barasertib = compound: CCN(CCCOc1ccc2c(Nc3cc(CC(=O)Nc4cccc(F)c4)[nH]n3)ncnc2c1)CCOP(=O)(O)O [barasertib]
Summary of the method: as §1

[2] = compound: CC[C@@H]1C(=O)N(C)c2cnc(Nc3ccc(C(=O)NC4CCN(C)CC4)cc3OC)nc2N1C1CCCC1
Summary of the method: as §1

[3] = compound: CCn1c(C(=O)N(C2CC2)C2CC2)cc2c3c(ncn3C)c(Nc3cc(C)n(C)n3)nc21
Summary of the method: as §1

rosiglitazone = compound: CN(CCOC1=CC=C(C=C1)C[C@H]2C(=O)NC(=O)S2)C3=CC=CC=N3 (racemic) [rosiglitazone]
Summary of the method: as §1

[4] = compound: CC1=CC=C(C=C1)SC2=C3C=C(SC3=CN=C2)C(=O)N
Summary of the method: as §1

[5] = compound: CC1=NC(=CC=C1)C2=C(N=C(N2)C(C)(C)C)C3=CC4=NC=CN=C4C=C3
Summary of the method: as §1

[6] = compound: CCCS(=O)(=O)Nc1ccc(F)c(C(=O)c2c[nH]c3ncc(Cl)cc23)c1F
Summary of the method: as §1

volasertib = compound: CC[C@@H]1C(=O)N(C)c2cnc(Nc3ccc(C(=O)N[C@H]4CC[C@H](N5CCN(CC6CC6)CC5)CC4)cc3OC)nc2N1C(C)C [volasertib]
Summary of the method: as §1

[7] = compound: CCn1cc(-c2ccnc3[nH]c(-c4cccc(CN(C)C)c4)cc23)c(-c2ccc(NC(=O)N(C)C)cc2)n1
Summary of the method: as §1

[8] = compound: CN1C2=C(C3=C1C(=O)N(N=C3)CC4=CC(=CC=C4)N)SC(=C2)S(=O)C
Summary of the method: as §1

[9] = compound: CN1CCC(CNc2ccc3ncc(-c4cccc(OC(F)(F)F)c4)n3n2)CC1
Summary of the method: as §1

[10] = compound: CC1=C(C=C(C=C1)NC(=O)C2=CC(=CC=C2)N(C)C)NC(=O)C3=CC=C(C=C3)O
Summary of the method: as §1

vemurafenib = compound: CCCS(=O)(=O)Nc1ccc(F)c(C(=O)c2c[nH]c3ncc(-c4ccc(Cl)cc4)cc23)c1F [vemurafenib]
Summary of the method: as §1

[11] = compound: CN(C)CC(=O)Nc1ccc2[nH]c(=O)c3ccccc3c2c1
Summary of the method: as §1

Nexturastat A = compound: CCCCN(Cc1ccc(C(=O)NO)cc1)C(=O)Nc1ccccc1 [Nexturastat A]
Summary of the method: as §1

[12] = compound: CC[C@H](C)N1C=C(C2=C(C=C(C=C21)C3=CN=C(C=C3)N4CCNCC4)C(=O)NCC5=C(C=C(NC5=O)C)C)C
Summary of the method: as §1

epoxomicin = compound: CC[C@H](C)[C@@H](C(=O)N[C@@H]([C@@H](C)O)C(=O)N[C@@H](CC(C)C)C(=O)[C@]1(CO1)C)NC(=O)[C@H]([C@@H](C)CC)N(C)C(=O)C [epoxomicin]
Summary of the method: as §1

Measured: log2 fold change

BNIP2 (UniProt H7C096)
inactive: [1] -0.027 | givinostat 0.174 | barasertib 0.062 | [2] -0.085 | [3] -0.048 | rosiglitazone -0.044

BCAS3 isoform 8 (UniProt Q9H6U6)
inactive: [4] 0.021 | [5] 0.011 | [6] 0.028 | givinostat 0.114 | [2] -0.055 | volasertib -0.333 | [3] 0.001 | [7] -0.06 | [8] -0.159 | [9] -0.012

BOD1 (UniProt Q96IK1)
inactive: [10] -0.15 | [1] 0.052 | givinostat -0.037 | [3] 0.042 | [7] 0.116 | [9] 0.086

Two records picked at random from those above:
BCAS3 isoform 8 (UniProt Q9H6U6)
inactive: [4] 0.021 | [5] 0.011 | [6] 0.028 | givinostat 0.114 | [2] -0.055 | volasertib -0.333 | [3] 0.001 | [7] -0.06 | [8] -0.159 | [9] -0.012

BOD1 (UniProt Q96IK1)
inactive: [10] -0.15 | [1] 0.052 | givinostat -0.037 | [3] 0.042 | [7] 0.116 | [9] 0.086

(cont.)

AUH (UniProt Q13825)
inactive: [10] -0.007 | [4] -0.107 | [5] 0.082 | vemurafenib 0.091 | [6] 0.008 | [1] -0.185 | givinostat 0.279 | barasertib 0.096 | [2] 0.011 | [7] -0.094 | [11] 0.128 | [8] -0.183 | [9] 0.086
active: volasertib 0.486

BBC3 (UniProt Q9BXH1)
inactive: [10] -0.11 | [4] 0.006 | [5] -0.054 | Nexturastat A 0.025 | vemurafenib 0.044 | [6] -0.037 | [1] -0.063 | givinostat -0.065 | barasertib -0.005 | [2] -0.01 | volasertib 0.111 | [12] -0.135 | epoxomicin 0.013 | [3] 0.047 | [7] -0.041 | [11] -0.057 | rosiglitazone 0.062 | [8] 0.022 | [9] 0.03

BORCS7 (UniProt Q96B45)
inactive: [4] -0.002 | [5] 0.022 | vemurafenib -0.14 | [6] -0.003 | [1] 0.005 | givinostat -0.014 | barasertib -0.139 | [2] -0.018 | volasertib -0.011 | [12] -0.12 | [3] 0.004 | [7] 0.048 | [11] -0.043 | rosiglitazone -0.029 | [8] -0.154 | [9] -0.017

ATXN3 isoform 1 (UniProt P54252)
active: volasertib -0.401
inactive: [10] -0.08 | [4] 0.012 | [5] -0.043 | vemurafenib 0.005 | [6] 0.04 | [1] -0.016 | givinostat 0.02 | barasertib 0.179 | [2] -0.371 | [12] 0.099 | [7] -0.016 | [11] -0.083 | [9] -0.015

BCDIN3D (UniProt Q7Z5W3)
inactive: barasertib 0.111 | [2] -0.03 | rosiglitazone -0.007

ATRX (UniProt P46100)
inactive: [7] 0.113 | [9] -0.016

ATXN2L (UniProt H3BUF6)
inactive: [10] 0.008 | [4] -0.171 | [5] 0.018 | [6] 0.109 | [1] -0.002 | barasertib -0.081 | [2] 0.01 | volasertib -0.075 | [12] -0.009 | [7] -0.077 | rosiglitazone 0.046 | [9] 0.214

BPNT1 (UniProt A6NF51)
inactive: [10] 0.126 | [5] 0.068 | Nexturastat A 0.016 | vemurafenib 0.001 | [1] -0.025 | givinostat 0.214 | barasertib -0.616 | [2] 0.01 | epoxomicin 0.105 | [3] 0.238 | [11] 0.036 | rosiglitazone 0.162

BCL7B (UniProt Q9BQE9)
inactive: [5] -0.027 | vemurafenib -0.047 | [1] 0.128 | [11] -0.167 | [8] 0.085

AURKB isoform 5 (UniProt Q96GD4)
inactive: vemurafenib 0.157 | [2] 0.156 | [12] -0.095 | [11] -0.281 | [8] 0.353

B3GALT6 (UniProt Q96L58)
inactive: [10] 0.029 | [5] -0.06 | givinostat 0.032 | [3] -0.072

BLVRA (UniProt C9J1E1)
inactive: [4] -0.149 | [5] 0.095 | vemurafenib -0.123 | [6] -0.26 | [1] -0.293 | givinostat -0.076 | barasertib 0.009 | volasertib -0.028 | [12] 0.226 | [3] -0.041 | [7] 0.015 | [11] -0.186 | rosiglitazone 0.124 | [8] 0.081 | [9] -0.001

BAHD1 (UniProt Q8TBE0)
inactive: [4] 0 | [6] -0.013 | [1] -0.174 | givinostat 0.072 | [2] -0.017 | volasertib -0.018 | [12] 0.054 | [3] -0.042 | [7] -0.128 | [9] -0.02

BCL7C (UniProt Q8WUZ0)
inactive: [1] 0.075

BORCS8 (UniProt Q96FH0)
inactive: [10] -0.026 | [2] -0.108

BMP1 (UniProt P13497)
inactive: givinostat -0.043 | barasertib 0.027 | [3] -0.04 | rosiglitazone 0.294

AVEN (UniProt Q9NQS1)
inactive: [4] -0.033 | Nexturastat A -0.023 | vemurafenib 0.037 | [6] -0.004 | givinostat -0.047 | barasertib 0.004 | [2] 0.07 | volasertib 0.031 | epoxomicin 0.015 | [3] 0.062 | [7] 0.004 | [11] -0.059 | rosiglitazone -0.027 | [8] 0.044 | [9] -0.104

AZIN1 (UniProt O14977)
inactive: [10] 0.003

BIN1 (UniProt O00499)
inactive: vemurafenib -0.049 | [1] 0.105 | [11] -0.131

BSCL2 isoform 4 (UniProt Q96G97)
inactive: [4] -0.073 | Nexturastat A -0.174 | vemurafenib 0.179 | [6] -0.043 | [1] -0.124 | givinostat 0.052 | barasertib 0.199 | volasertib 0.072 | [12] 0.093 | epoxomicin -0.05 | [7] 0 | [11] -0.006 | [8] -0.005 | [9] -0.057

BCS1L, A0A2R8Y7T3
inactive: barasertib 0.068 | rosiglitazone 0.094

BNIP3L (UniProt O60238)
inactive: [10] 0.177 | [5] 0.04 | vemurafenib -0.013 | [1] -0.053 | givinostat 0.06 | [2] -0.065 | [12] 0.045 | [3] -0.08 | [11] -0.173 | [8] 0.004
